Drawing on PubChem BioAssay AID493014 (National Center for Advancing Translational Sciences (NCATS), 2011), this text covers AC50 for 41 compounds.

Some of the results follow. The main result of the screen is listed elsewhere. These columns were measured beside it and carry no call. Most of these compounds were active or inconclusive in the main read-out, so they are no random draw. The note in brackets gives the kind of curve behind each potency; many fits are weak.

The test can be described thus: qHTS Assay to Find Inhibitors of Chronic Active B-Cell Receptor Signaling. The note with it: ABC-DLBCL IkBa-CBG/CBR reporter, luminescence ratio (green luciferase fused to IkBa over red control in TMD8 lymphoma cells), 4 h. A digest of the protocol:
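Cell line TMD8 (human ABC DLBCL), stably expressing tet-inducible CBG68-IkBa fusion and CBR; IMDM/0.5% FBS; cpd up to 46 uM; dox induction, 4 h, 37C/5% CO2; dual luminescence; green/red ratio; MG132 control.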
On the technique in general: In qHTS, concentration-response curves come from the screen itself.

The mark [1] stands for this setting: measured here: CBR red luminescence, cell number.

In general, AC50 refers to the concentration at which the activity in the assay is half-maximal. Turning to `CC(=O)c1c(C(C)=O)c(C)n(-c2nc(-c3ccccc3)c(C)s2)c1C`, the AC50 under setting [1] was 16.4 µM [falling, single point].
Still for that read-out and setting: the same measure for `Cc1cnc(C(=O)OCC(=O)Nc2ccc(C)c(S(=O)(=O)N(C)C)c2)cn1`: 4.47 µM [rising, partial curve]; for `CSc1ccc(CC(=O)N2CCC(n3nccc3NC(=O)C3CC3)CC2)cc1`: 25.1 µM [rising, partial curve, poor fit]; for `NC(=O)c1nn(-c2ccccc2)nc1N`: 0.92 µM [falling, full curve, poor fit].
With `CC(C)=NNc1nc2sc3c(c2c(=O)[nH]1)CC(C)(C)OC3`, the half-maximal activity concentration (AC50) under setting [1] is 4.11 µM [rising, partial curve, poor fit].
On to `O=C(COc1ccccc1)N1CCN=C1SCc1ccc(F)cc1`, for which, under setting [1], the AC50 was 5.01 µM [falling, partial curve, poor fit].
As to `O=C(NNc1ccccc1)/C(=C\c1cccnc1)NC(=O)c1ccccc1`, under setting [1], the AC50 is 35.5 µM [rising, single point].
Turning to `COc1ccc(C(C)NC(=S)NC2CCCC2)cc1OC` (configuration not stated), under setting [1], the AC50 was 5.17 µM [falling, partial curve, poor fit].
The same measure, in the same setting: the same measure for `N#Cc1nc(-c2ccc(OCc3ccccc3)cc2)oc1NCc1ccco1`: 3.55 µM [rising, partial curve, poor fit]; for `O=C(NC1CC1)c1sc2cc([N+](=O)[O-])ccc2c1Cl`: 7.31 µM [rising, partial curve, poor fit]; for `COc1ccc(CC(=O)c2ccc(OC)c(OC)c2)cc1`: 2.59 µM [rising, partial curve, poor fit].
As for `COc1cc(/C=C2\SC(=Nc3c(C)n(C)n(-c4ccccc4)c3=O)NC2=O)ccc1O`, under setting [1], the AC50 was 4.11 µM [rising, single point].
On to `Cc1ccc(C2OC34CCCCCC3C(C#N)(C(=N)O4)C2(C#N)C#N)cc1` (configuration not stated), for which, under setting [1], the AC50 is 18.4 µM [falling, partial curve].
As to `COC(=O)c1sc(NC(=O)c2cc(C)on2)nc1C`, the AC50 under setting [1] was 10 µM [falling, partial curve].
For the compound `Cc1ccsc1/C=N/n1c(C2CCCCC2)n[nH]c1=S`, under setting [1], the AC50 was 23.1 µM [rising, single point].
For the compound `O=C(Nc1ccc(-c2cn3ccsc3n2)cc1)c1ccc(F)c(S(=O)(=O)N2CCOCC2)c1`, under setting [1], the half-maximal activity concentration (AC50) was 29.1 µM [falling, single point].
Take `Cc1ccc(-c2nc(CS(=O)CC(=O)NCc3ccc(Cl)cc3)c(C)o2)cc1` (configuration not stated): the AC50 under setting [1] is 0.411 µM [rising, full curve, poor fit].
Take `O=C(Nc1ccc2c(c1)OCO2)c1cccc(Cl)c1`: under setting [1], the half-maximal activity concentration (AC50) was 18.4 µM [falling, single point].
On the same count and under the same terms, the same measure for `Cc1cc(NC(=O)c2ccco2)ccc1NC(=O)c1ccco1`: 44.7 µM [rising, partial curve, poor fit]; for `CC1CN(C(=S)Nc2ccc(Cl)cc2)CC(C)O1` (configuration not stated): 20 µM [rising, single point]; for `COC(=O)c1cc(S(=O)(=O)N2CCN(c3ccc([N+](=O)[O-])cc3)CC2)c[nH]1`: 5.01 µM [falling, full curve].
Consider `CCOC(=O)c1ccc(NC(=O)CC2COc3ccccc3O2)cc1` (configuration not stated), for which the AC50 under setting [1] was 18.4 µM [rising, single point].
Same read-out and setting: the same measure for `Cc1cc(C)nc(NC(=O)C(c2ccccc2)c2ccccc2)n1`: 2.51 µM [falling, full curve, poor fit]; for `Cc1cc(C(F)(F)F)n2ncc(-c3ccc(F)cc3)c2n1`: 0.731 µM [rising, full curve, poor fit].
For `COc1ccc(CC(=O)OCC(=O)c2c[nH]c3ccccc23)cc1`, the concentration at half-maximal activity (AC50) under setting [1] is 5.8 µM [rising, partial curve, poor fit] and the AC50 (measured here: IkBa-CBG green luminescence) was 29.1 µM [falling, partial curve, poor fit].
As for `CC(OC(=O)c1ccncc1)C(=O)Nc1cc(S(=O)(=O)N2CCCCC2)ccc1Cl` (configuration not stated), the half-maximal activity concentration (AC50) under setting [1] is 0.461 µM [rising, partial curve, poor fit].
The same measure, in the same setting: the same measure for `CCCCn1nc2cc(C(=O)NCc3ccccc3)ccc2c1OCC`: 0.1 µM [rising, full curve, poor fit].
Still for that read-out and setting: the same measure for `O=S(=O)(NCc1csc(-c2cccs2)n1)c1ccccc1`: 3.16 µM [rising, partial curve, poor fit].
As for `O=C(COC(=O)c1ccc2c(c1)S(=O)(=O)N=C1CCCCCN12)NCc1cccs1`, under setting [1], the AC50 is 0.112 µM [rising, full curve, poor fit].
As to `CC(C)c1cccc(C(C)C)c1OC(=O)NC(=O)c1c(F)cccc1F`, the AC50 under setting [1] is 10 µM [falling, partial curve, poor fit].
On the same count and under the same terms, the same measure for `COCC(=O)Nc1cc(Cl)ccc1C(F)(F)F`: 2 µM [rising, partial curve]; for `CCCCCOc1ccc(/C(C)=N/NC2=NCCN2)cc1`: 35.5 µM [falling, single point].
On to `CC1CCc2sc(-c3n[nH]c(=S)o3)cc2C1` (configuration not stated), for which, under setting [1], the AC50 was 20 µM [falling, single point].
Same read-out and setting: the same measure for `CCCc1nc(SCC(=O)N2CCc3ccccc32)c2c(=O)n(C)c(=O)n(C)c2n1`: 36.6 µM [rising, partial curve, poor fit]; for `COC(=O)Cc1c(C)c2ccc(OCC(=O)N(C)C)cc2oc1=O`: 29.1 µM [rising, single point]; for `COc1ccccc1OCCC(=O)OCC(=O)Nc1ccc(Br)cc1F`: 10 µM [falling, partial curve].
Still for that read-out and setting: the same measure for `Cc1occc1-c1nnc(SCC(=O)N2CCOCC2)n1CC(C)C`: 6.51 µM [rising, partial curve, poor fit]; for `CC(NC(=O)c1cc2c(s1)CCCC2)C(C)(C)C` (configuration not stated): 6.51 µM [falling, single point].
Take `O=C(OC1CCOC1=O)c1ccccc1C(=O)c1ccc(Cl)c([N+](=O)[O-])c1` (configuration not stated): under setting [1], the concentration at half-maximal activity (AC50) is 0.92 µM [falling, full curve, poor fit].
For `O=C(COc1ccc(S(=O)(=O)N2CCCC2)cc1Cl)NCc1ccccn1`, the concentration at half-maximal activity (AC50) under setting [1] is 12.6 µM [rising, single point].
Take `O=C(NCCC1=CCCCC1)C1CCCN(S(=O)(=O)c2ccccc2)C1` (configuration not stated): under setting [1], the AC50 is 32.6 µM [falling, single point].
